These are yes or no findings as the source states them, for the method shown. For some of these results: Binding seen in cells or lysates may run through a third protein. Some binding calls cover weakened binding; strength is not graded here. For some of these results: Where a sequence is shown, tags or fusion partners need not be part of it.
Tests used:
[1] = molecular target: T1, endogenous HDAC3 (mouse (endogenous in P19)) (UniProt O88895); experiment: co-IP; endogenous proteins of P19 cells; cells untreated or treated with atRA (0.1 μM, 6 h or a time course of 0-48 h), ERK activator S-1-P, TSA, siRNA to TR2 or ERK2, expression of WT or Ser-424→Ala HDAC3; whole lysates or nuclear and cytoplasmic fractions
T1 sequence: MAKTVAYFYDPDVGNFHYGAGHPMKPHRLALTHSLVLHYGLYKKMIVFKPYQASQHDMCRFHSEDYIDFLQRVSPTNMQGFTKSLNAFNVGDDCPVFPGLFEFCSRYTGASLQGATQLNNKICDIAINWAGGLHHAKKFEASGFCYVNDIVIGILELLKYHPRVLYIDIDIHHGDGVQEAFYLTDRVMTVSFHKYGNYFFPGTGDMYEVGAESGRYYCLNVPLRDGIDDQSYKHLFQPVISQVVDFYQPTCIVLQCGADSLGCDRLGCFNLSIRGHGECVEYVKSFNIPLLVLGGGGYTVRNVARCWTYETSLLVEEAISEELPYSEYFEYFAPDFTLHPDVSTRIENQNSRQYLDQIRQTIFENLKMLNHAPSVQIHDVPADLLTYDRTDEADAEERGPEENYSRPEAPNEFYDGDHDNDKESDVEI

The chains behind the UniProt entries cited, without tags or fusion partners.
UniProt Q6P5F9: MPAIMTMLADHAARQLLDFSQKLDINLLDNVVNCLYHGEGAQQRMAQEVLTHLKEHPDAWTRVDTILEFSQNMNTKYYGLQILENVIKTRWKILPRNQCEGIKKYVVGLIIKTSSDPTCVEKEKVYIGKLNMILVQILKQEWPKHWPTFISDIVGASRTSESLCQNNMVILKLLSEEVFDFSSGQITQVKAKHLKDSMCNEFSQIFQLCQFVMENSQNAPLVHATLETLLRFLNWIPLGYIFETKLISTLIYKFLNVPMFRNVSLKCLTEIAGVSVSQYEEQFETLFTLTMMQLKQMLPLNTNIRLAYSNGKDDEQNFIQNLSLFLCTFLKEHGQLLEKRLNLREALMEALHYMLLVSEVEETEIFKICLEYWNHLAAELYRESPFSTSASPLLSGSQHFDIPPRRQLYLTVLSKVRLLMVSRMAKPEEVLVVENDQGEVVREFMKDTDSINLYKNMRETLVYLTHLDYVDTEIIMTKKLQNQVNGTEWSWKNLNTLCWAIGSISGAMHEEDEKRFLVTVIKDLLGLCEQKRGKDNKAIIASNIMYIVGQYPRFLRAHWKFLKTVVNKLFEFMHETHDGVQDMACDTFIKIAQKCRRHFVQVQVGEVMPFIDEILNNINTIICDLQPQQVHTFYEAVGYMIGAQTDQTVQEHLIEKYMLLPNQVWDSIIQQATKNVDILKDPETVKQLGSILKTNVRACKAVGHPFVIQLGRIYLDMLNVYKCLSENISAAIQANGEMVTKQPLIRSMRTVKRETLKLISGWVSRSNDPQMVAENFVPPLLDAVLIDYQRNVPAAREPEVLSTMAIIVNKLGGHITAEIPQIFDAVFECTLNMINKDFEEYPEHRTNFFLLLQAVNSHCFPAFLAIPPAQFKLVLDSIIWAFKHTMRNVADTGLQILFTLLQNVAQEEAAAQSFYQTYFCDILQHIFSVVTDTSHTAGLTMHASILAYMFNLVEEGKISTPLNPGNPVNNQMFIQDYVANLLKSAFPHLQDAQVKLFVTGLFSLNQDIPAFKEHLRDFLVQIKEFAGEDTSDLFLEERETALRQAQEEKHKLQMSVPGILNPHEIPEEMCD
UniProt P70168: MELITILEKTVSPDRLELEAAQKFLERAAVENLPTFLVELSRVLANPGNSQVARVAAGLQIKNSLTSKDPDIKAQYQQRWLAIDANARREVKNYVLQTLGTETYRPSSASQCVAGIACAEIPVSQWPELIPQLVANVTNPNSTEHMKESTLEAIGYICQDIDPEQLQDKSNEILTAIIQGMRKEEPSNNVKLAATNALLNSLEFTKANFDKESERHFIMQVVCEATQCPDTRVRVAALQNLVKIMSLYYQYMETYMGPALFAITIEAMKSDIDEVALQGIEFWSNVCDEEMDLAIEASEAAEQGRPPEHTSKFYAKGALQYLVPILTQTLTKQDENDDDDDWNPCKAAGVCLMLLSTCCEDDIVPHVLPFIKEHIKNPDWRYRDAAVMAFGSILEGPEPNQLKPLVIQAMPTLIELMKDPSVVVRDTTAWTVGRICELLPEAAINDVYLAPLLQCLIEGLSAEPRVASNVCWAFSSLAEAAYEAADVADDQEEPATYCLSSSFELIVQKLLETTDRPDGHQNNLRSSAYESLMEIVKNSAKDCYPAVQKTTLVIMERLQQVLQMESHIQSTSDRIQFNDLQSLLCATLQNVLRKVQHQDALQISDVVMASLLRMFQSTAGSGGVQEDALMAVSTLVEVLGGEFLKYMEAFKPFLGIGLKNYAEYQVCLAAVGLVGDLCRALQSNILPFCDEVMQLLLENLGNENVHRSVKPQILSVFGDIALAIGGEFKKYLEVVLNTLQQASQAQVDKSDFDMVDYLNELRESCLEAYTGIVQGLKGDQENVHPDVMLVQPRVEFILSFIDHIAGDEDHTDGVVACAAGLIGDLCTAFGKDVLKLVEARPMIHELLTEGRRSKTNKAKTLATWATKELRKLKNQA

[2] = molecular target: T2, TR2 full-length wild type (GAL4 two-hybrid construct) (mouse), Q505F1; experiment: two-hybrid; mammalian version of the two-hybrid system in COS-1 cells, GAL4 tk-luciferase reporter; details: remark: other sources report otherwise
T2 chain: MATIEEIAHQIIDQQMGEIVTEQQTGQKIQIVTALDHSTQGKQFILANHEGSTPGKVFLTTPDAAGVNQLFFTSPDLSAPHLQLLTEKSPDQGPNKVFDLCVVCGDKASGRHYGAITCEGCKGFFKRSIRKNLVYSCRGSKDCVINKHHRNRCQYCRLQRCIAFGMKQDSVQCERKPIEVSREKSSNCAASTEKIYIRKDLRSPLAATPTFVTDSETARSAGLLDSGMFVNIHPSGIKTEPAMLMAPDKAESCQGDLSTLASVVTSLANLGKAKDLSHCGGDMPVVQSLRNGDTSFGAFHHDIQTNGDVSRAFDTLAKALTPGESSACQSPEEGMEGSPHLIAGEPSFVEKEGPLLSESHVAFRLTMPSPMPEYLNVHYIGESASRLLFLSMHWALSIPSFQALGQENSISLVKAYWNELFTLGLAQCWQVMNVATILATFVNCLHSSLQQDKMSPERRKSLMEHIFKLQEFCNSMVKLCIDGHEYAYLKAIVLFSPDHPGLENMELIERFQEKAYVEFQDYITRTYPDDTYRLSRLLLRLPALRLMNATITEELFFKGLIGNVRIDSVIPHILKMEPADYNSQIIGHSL

[3] = molecular target: T3, endogenous TR2 (mouse (endogenous in P19)), Q505F1; experiment: co-IP; endogenous proteins of P19 cells; cells untreated or treated with atRA (0.1 μM, 6 h or a time course of 0-48 h), ERK activator S-1-P, TSA, siRNA to TR2 or ERK2, expression of WT or Ser-424→Ala HDAC3; whole lysates or nuclear and cytoplasmic fractions; details: remark: other sources report otherwise
T3 chain: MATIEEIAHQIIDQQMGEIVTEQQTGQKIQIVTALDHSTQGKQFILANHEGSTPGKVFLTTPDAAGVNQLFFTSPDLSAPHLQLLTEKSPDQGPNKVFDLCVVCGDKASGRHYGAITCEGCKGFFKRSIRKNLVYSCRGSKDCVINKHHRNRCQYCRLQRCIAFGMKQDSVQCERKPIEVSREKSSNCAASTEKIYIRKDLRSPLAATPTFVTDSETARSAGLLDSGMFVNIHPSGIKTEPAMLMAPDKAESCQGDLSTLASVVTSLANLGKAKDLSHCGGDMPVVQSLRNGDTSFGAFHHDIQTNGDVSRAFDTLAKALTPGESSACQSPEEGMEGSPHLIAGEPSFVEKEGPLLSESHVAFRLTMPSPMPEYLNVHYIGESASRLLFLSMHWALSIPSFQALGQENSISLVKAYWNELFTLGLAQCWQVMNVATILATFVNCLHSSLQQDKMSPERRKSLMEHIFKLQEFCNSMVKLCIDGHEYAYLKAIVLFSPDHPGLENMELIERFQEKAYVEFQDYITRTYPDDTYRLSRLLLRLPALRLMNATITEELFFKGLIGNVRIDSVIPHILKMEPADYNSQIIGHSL

[4] = molecular target: T3, endogenous TR2 (mouse (endogenous in …)); experiment: co-IP; endogenous proteins of P19 cells treated with the ERK2 inhibitor AMTZD (25 μM, 6 h), with or without atRA; details: remark: other sources report otherwise
[5] = molecular target: T4, FLAG-tagged WT TR2 (mouse), Q505F1; experiment: co-IP; P19 cells transiently transfected (0.5 μg/ml, 16 h) with FLAG-tagged TR2 constructs; association with endogenous HDAC3 and PML; details: remark: other sources report otherwise
T4 chain: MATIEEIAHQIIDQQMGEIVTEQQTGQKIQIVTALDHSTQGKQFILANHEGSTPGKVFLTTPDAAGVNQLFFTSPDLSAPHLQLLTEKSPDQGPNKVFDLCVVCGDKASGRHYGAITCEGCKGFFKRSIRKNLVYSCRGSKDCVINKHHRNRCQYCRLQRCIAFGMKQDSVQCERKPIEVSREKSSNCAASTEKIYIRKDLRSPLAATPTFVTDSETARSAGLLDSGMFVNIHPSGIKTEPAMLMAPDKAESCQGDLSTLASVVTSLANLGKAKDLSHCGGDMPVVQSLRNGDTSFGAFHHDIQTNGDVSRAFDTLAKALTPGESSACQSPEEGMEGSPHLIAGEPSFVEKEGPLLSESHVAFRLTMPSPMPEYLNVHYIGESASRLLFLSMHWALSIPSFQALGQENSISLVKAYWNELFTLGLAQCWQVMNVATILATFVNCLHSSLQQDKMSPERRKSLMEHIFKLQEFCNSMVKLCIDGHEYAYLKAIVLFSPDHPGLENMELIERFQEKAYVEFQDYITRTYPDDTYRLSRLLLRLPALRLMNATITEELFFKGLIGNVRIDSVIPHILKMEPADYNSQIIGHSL

[6] = molecular target: T5, GST–TR2 WT (mouse), Q505F1; experiment: pull-down; GST pull-down: recombinant GST–TR2 purified from E. coli incubated with 35S-labeled in vitro-transcribed and translated protein; SDS–PAGE and autoradiography; only the target purified; details: remark: other sources report otherwise
T5 chain: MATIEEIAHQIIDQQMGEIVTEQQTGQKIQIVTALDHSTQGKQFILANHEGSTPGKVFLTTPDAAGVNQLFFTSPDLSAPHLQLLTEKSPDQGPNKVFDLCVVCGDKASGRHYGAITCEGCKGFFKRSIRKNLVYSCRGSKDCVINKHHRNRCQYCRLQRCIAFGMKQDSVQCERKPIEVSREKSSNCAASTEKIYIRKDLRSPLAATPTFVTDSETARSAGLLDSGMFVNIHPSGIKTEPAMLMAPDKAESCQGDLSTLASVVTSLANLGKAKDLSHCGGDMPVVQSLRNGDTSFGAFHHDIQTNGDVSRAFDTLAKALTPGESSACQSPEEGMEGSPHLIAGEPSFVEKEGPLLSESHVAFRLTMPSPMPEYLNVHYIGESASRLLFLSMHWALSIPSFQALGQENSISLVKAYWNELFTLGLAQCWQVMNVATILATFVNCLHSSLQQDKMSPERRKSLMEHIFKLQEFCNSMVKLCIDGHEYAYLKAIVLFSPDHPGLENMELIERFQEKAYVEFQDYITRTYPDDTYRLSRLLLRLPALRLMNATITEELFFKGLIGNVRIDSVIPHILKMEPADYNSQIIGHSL

In the case of “exportin 1 (CRM1) (from UniProt Q6P5F9 1-1071)”, the binding [1] is reported as “binds”.

For “importin-β1 (karyopherin β1) (from UniProt P70168 1-876)”, the binding [1] was “binds”.

B1: HDAC3 (mammalian two-hybrid construct), O88895 1-428 (protein)
chain: MAKTVAYFYDPDVGNFHYGAGHPMKPHRLALTHSLVLHYGLYKKMIVFKPYQASQHDMCRFHSEDYIDFLQRVSPTNMQGFTKSLNAFNVGDDCPVFPGLFEFCSRYTGASLQGATQLNNKICDIAINWAGGLHHAKKFEASGFCYVNDIVIGILELLKYHPRVLYIDIDIHHGDGVQEAFYLTDRVMTVSFHKYGNYFFPGTGDMYEVGAESGRYYCLNVPLRDGIDDQSYKHLFQPVISQVVDFYQPTCIVLQCGADSLGCDRLGCFNLSIRGHGECVEYVKSFNIPLLVLGGGGYTVRNVARCWTYETSLLVEEAISEELPYSEYFEYFAPDFTLHPDVSTRIENQNSRQYLDQIRQTIFENLKMLNHAPSVQIHDVPADLLTYDRTDEADAEERGPEENYSRPEAPNEFYDGDHDNDKESDVEI
For B1, the binding [2] was “binds”.

B2: endogenous HDAC3, O88895 1-428 (protein)
chain: MAKTVAYFYDPDVGNFHYGAGHPMKPHRLALTHSLVLHYGLYKKMIVFKPYQASQHDMCRFHSEDYIDFLQRVSPTNMQGFTKSLNAFNVGDDCPVFPGLFEFCSRYTGASLQGATQLNNKICDIAINWAGGLHHAKKFEASGFCYVNDIVIGILELLKYHPRVLYIDIDIHHGDGVQEAFYLTDRVMTVSFHKYGNYFFPGTGDMYEVGAESGRYYCLNVPLRDGIDDQSYKHLFQPVISQVVDFYQPTCIVLQCGADSLGCDRLGCFNLSIRGHGECVEYVKSFNIPLLVLGGGGYTVRNVARCWTYETSLLVEEAISEELPYSEYFEYFAPDFTLHPDVSTRIENQNSRQYLDQIRQTIFENLKMLNHAPSVQIHDVPADLLTYDRTDEADAEERGPEENYSRPEAPNEFYDGDHDNDKESDVEI
With B2 the binding [3] was “binds”, the binding [4] was “binds” and the binding [5] was “binds”.

B3: 35S-labeled in vitro-transcribed and translated PML, Q60953 1-885 (protein)
chain: METEPVSVQKVPAPPGSPCRQQDSALTPTPTMPPPEEPSEDYEHSQSPAEQAIQEEFQFLRCPSCQAQAKCPKLLPCLHTLCSGCLEAPGLQCPICKAPGQADANGEALDNVFFESLQRRLAVFRQIVDAQAACTRCKGLADFWCFECEQLICSKCFEAHQWYLKHEARPLADLRDNSVSSFLDSTRKSNIFCSNTNHRNPALTDIYCRGCAKPLCCTCALLDRNHSHLHCDIGEEIQQWHEELGTMTQTLEEQGRTFDSAHAQMCSAIGQLDHARADIEKQIRARVRQVVDYVQAQERELLEAVNDRYQRDYQEIAGQLSCLEAVLQRIRTSGALVKRMKLYASDQEVLDMHSFLRKALCSLRQEEPQNQKVQLLTRGFEEFKLCLQDFISCITQRINAAVASPEAASNQPEAASTHPVTTSTPEDLEQPKEVQSVQAQALELSKTQPVAMVKTVPGAHPVPVYAFSMQGPTYREEASQTVGSMKRKCSHEDCSRKIIKMESTEENEDRLATSSPEQSWPSTFKATSPPHLDGTSNPESTVPEKKILLPNNNHVTSDTGETEERVVVISSSEDSDTENLSSHELDDSSSESSSLQLEGPNSLKALDESLAEPHLEDRTLVFFDLKIDNETQKISQLAAVNRESKFRVLIQPEAFSVYSKAVSLEAGLRHFLSFLTTMHRPILACSRLWGPGLPIFFQTLSDINKLWEFQDTISGFLAVLPLIRERIPGASSFKLGNLAKTYLARNMSERSALASVLAMRDLCCLLEISPGLPLAQHIYSFSSLQCFASLQPLIQASVLPQSEARLLALHNVSFVELLNAYRTNRQEGLKKYVHYLSLQTTPLSSSASTQVAQFLQALSTHMEGLLEGHAPAGAEGKAESKGCLA
modifications: here or on the partner: 35S-labeled
In the case of B3, the binding [6] is reported as “no binding”.

Reference: PMC2634961
